{
  "source": "patent US5135936A",
  "about": "“Isomers of 1-azabicyclo[2.2.2]oct-3-yl methyl 1,4-dihydro-2,6-dimethyl-4-(3-nitrophenyl)-3,5-pyridinediacarboxylic and their use as calcium antagonists” (Marion Merrell Dow Inc., priority 1991, dated 1992)",
  "tested_on": "[3H]-Nitrendipine Binding in Rat Cortical Membranes",
  "assay": "Inhibition of [3H]-Nitrendipine Binding in Rat Cortical Membranes",
  "details": "displacement curve",
  "experimental": "[3H]-Nitrendioine Bindino in Rat Cortex\nAnimals were decapitated and the cortical tissue was dissected, weighed and polytroned in about 20 volumes (w/v) of ice cold buffer ([…] TRIS HCl, pH 7.5). The tissue was then washed 3 times via centrifugation (20,000 rpm for 10 min at 4° C.) with subsequent resuspension in fresh buffer. The final pellet was resuspended prior to the assay at 22.5 mg/mL […]. Incubations were performed at room temperature for 90 min in each assay. These incubations were done in triplicate in a final assay volume of 2.0 mL. Non-specific binding was determined by the addition of 1 uM nifedipine for the [3H]-nitrendipine assay each to triplicate set of tubes. Reactions in each assay were terminated by filtration using a Brandel Cell Harvester followed by washing with ice cold buffer.\nFor preliminary evaluations in each assay, all compounds were examined at four log concentrations (1 nM-1 uM). full displacement curves were generated on all compounds showing inhibition of specific binding of 50% or greater at a 1 uM drug concentration. Standard reference compounds were included and evaluated in each assay. Analysis of data was done using both the EBDA Scafit program and HP-11C linear regression.",
  "data": [
    {"smiles": "COC(=O)C1=C(C)NC(C)=C(C(=O)O[C@H]2CN3CCC2CC3)[C@@H]1c1cccc([N+](=O)[O-])c1", "note": "[(R,R)-I, (R,R)-1-Azabicyclo[2.2.2]oct-3-yl methyl 1,4-dihydro-2,6-dimethyl-4-(3-nitrophenyl)-3,5-pyridinedicarboxylate]", "values": [
      {"measurement": "Slope", "value": 1.02}
    ]},
    {"smiles": "COC(=O)C1=C(C)NC(C)=C(C(=O)O[C@H]2CN3CCC2CC3)[C@H]1c1cccc([N+](=O)[O-])c1", "note": "[(R,S)-I, (R,S)-1-Azabicyclo[2.2.2]oct-3-yl methyl 1,4-dihydro-2,6-dimethyl-4-(3-nitrophenyl)3,5-pyridinedicarboxylate]", "values": [
      {"measurement": "Slope", "value": 0.99}
    ]}
  ]
}
